Laboratory results: PubChem BioAssay AID743454 (Peter MacCallum Cancer Centre, 2014)
Here is a random part of about 18,000 deposited reagents. Over the whole deposit, 450 (2.5%) got an active call. 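Single biological run; no consistent viability z cut-off exists, so the class columns, not z-scores, define the calls.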

Assay: 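Genes whose loss kills vorinostat-resistant colon cancer cells under vorinostat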 (primary screen)
System: human HCT116-VR colon cancer cells, selected for vorinostat resistance
Reagent: siRNA pool against human genes, 40 nM siRNA pool
Timing: vorinostat for 24 h, read-out about 72 h after transfection
Treatment: vorinostat at 2.5 µM final
Measurement: 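Cell viability by CellTiter-Fluor and caspase 3/7 activity by luminescence, each scaled to mock wells per plate, duplicates averaged, then robust z-scored over all plates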
Scale: viability robust z-score: higher = more viable cells than screen typical; caspase robust z-score: higher = more caspase 3/7 activity than screen typical
Rule for the call: 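a knock-down is a hit when classed RV1 or RV2 for lowered viability, or CA1 or CA2 for caspase activation; those lethal without drug were dropped; hits were retested singly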

The opening 2 entries as a preview:
DEFB130A → viability hit class = no change; caspase hit class = no change; viability robust z-score = -0.38; caspase robust z-score = -0.07; activity call = inactive
MOB3C → viability hit class = no change; caspase hit class = no change; viability robust z-score = 0.74; caspase robust z-score = 0.08; activity call = inactive

The listing, repeating the preview:
DEFB130A → viability hit class = no change; caspase hit class = no change; viability robust z-score = -0.38; caspase robust z-score = -0.07; activity call = inactive
MOB3C → viability hit class = no change; caspase hit class = no change; viability robust z-score = 0.74; caspase robust z-score = 0.08; activity call = inactive
RBAK → viability hit class = no change; caspase hit class = no change; viability robust z-score = -0.42; caspase robust z-score = 0.54; activity call = inactive
COL1A1 → viability hit class = no change; caspase hit class = no change; viability robust z-score = -0.32; caspase robust z-score = -0.66; activity call = inactive
LY6K → viability hit class = no change; caspase hit class = no change; viability robust z-score = 2.28; caspase robust z-score = -0.08; activity call = inactive
SLC16A10 → viability hit class = no change; caspase hit class = no change; viability robust z-score = -1.74; caspase robust z-score = 4.21; activity call = inactive
NIBAN2 → viability hit class = no change; caspase hit class = no change; viability robust z-score = 1.63; caspase robust z-score = -0.6; activity call = inactive
DLEC1 → viability hit class = no change; caspase hit class = no change; viability robust z-score = 0.1; caspase robust z-score = 0.2; activity call = inactive
SDR39U1 → viability hit class = no change; caspase hit class = no change; viability robust z-score = -0.01; caspase robust z-score = 1.27; activity call = inactive
CDK5RAP3 → viability hit class = no change; caspase hit class = no change; viability robust z-score = -0.18; caspase robust z-score = -0.84; activity call = inactive
LRG1 → viability hit class = no change; caspase hit class = no change; viability robust z-score = 0.42; caspase robust z-score = -0.72; activity call = inactive
RPL26L1 → viability hit class = no change; caspase hit class = no change; viability robust z-score = 0.41; caspase robust z-score = -0.2; activity call = inactive
